# Data published in the supplement of paper PMC9135407.
# Several values for one entry are separate records, joined by “and”; a condition that tells them apart may be missing. Equal values may be shown once. Where a name gives a salt, the structure may show the parent alone. ± gives the standard deviation of the averaged measurements. This is one part of the list. Part of the spread comes from offsets between plates or batches.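 Culture-activated primary human stellate myofibroblasts, where regained lipid droplets signal inactivation. Value: share of Hoechst-counted cells above a per-plate Bodipy cutoff, in duplicate wells, with DMSO negative and nortriptyline positive controls on each plate. Hits: a control-normalized score above the plate's top-tenth-percentile nortriptyline wells, or one of a plate's three best wells. Final well concentrations are not given.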
# Tested on: primary human hepatic stellate cells (donor 1)
# Assay: percent Bodipy-positive cells; higher = more lipid droplet accumulation
# Details: 48 h
# [1] = library stock concentration: 10 mM
# [2] = library stock concentration: 3.33 mM
# [3] = library stock concentration: 1 mM
# [4] = library stock concentration: 5.9 mM
smiles,measurement,setting,value
"C[C@]12CCC(=O)C[C@@H]1CC[C@@H]1[C@@H]2CC[C@]2(C)C(=O)CC[C@@H]12 [5alpha-androstan-3,17-dione]",percent Bodipy-positive cells,[1],36.1 ± 5.4%
O=C1C=CC[C@@H]2[C@H]3CCCN4CCC[C@@H](CN12)[C@@H]34 [Sophocarpine],percent Bodipy-positive cells,[2],8.25 ± 3.6%
same,percent Bodipy-positive cells,[1],13.2 ± 4.3%
CCCCC/C=C\C/C=C\C/C=C\C/C=C\CCCC(=O)Nc1cccc([N+](=O)[O-])c1 [Arachidonoyl m-Nitroaniline],percent Bodipy-positive cells,[3],22.3 ± 16%
CC(N)Cc1c[nH]c2ccc(OCc3cccs3)cc12.Cl (configuration not stated),percent Bodipy-positive cells,[1],97.5 ± 0.13%
CC(N)Cc1cnc[nH]1 (configuration not stated),percent Bodipy-positive cells,[1],6.07 ± 0.25%
O=C1Nc2ccccc2C2(CCN(CCc3ccc(C(F)(F)F)cc3)CC2)O1,percent Bodipy-positive cells,[1],43.2 ± 6.2%
NC(CCCCCP(=O)(O)O)C(=O)O (configuration not stated) [(?)-2-Amino-7-phosphonoheptanoic acid],percent Bodipy-positive cells,[1],41.2 ± 9%
O=C(NCC1CCOCC1)c1cnc(Nc2ccc(Cl)cc2Cl)nc1C(F)(F)F,percent Bodipy-positive cells,[2],12.1 ± 4.6%
same,percent Bodipy-positive cells,[1],31.8 ± 23%
CN1CCc2cccc(Cl)c2CC1,percent Bodipy-positive cells,[1],22 ± 3.1%
COc1c2c(cc3c1OCO3)CCN(C)C2 [Hydrocotarnine hydrobromide],percent Bodipy-positive cells,,41.4 ± 21%
COC(=O)[C@@H](N)CCCNC(=N)N[N+](=O)[O-] [L-NAME (hydrochloride)],percent Bodipy-positive cells,[3],8.48 ± 0.21%
COC(=O)[C@@H](N)CCCNC(=N)N[N+](=O)[O-] [L-NAME hydrochloride],percent Bodipy-positive cells,[1],7.14 ± 1.7%
COC(=O)[C@@H](N)CCCNC(=N)N[N+](=O)[O-] [NG-Nitro-L-arginine methyl ester hydrochloride],percent Bodipy-positive cells,[1],29.2 ± 1.4%
COC(=O)[C@@H](N)CCCNC(=N)N[N+](=O)[O-],percent Bodipy-positive cells,library stock concentration: 21.4 mM,16 ± 7.5%
Cn1c(CCCC(=O)O)nc2cc(N(CCCl)CCCl)ccc21 [Bendamustine hydrochloride],percent Bodipy-positive cells,[1],64.9 ± 3.3%
Cn1c(CCCC(=O)O)nc2cc(N(CCCl)CCCl)ccc21 [Bendamustine HCl],percent Bodipy-positive cells,[2],10.1 ± 0.47%
same,percent Bodipy-positive cells,[1],13.2 ± 1.1%
"CN1CCc2cc(O)cc3c2[C@H]1Cc1ccc(O)c(O)c1-3 [R(-)-2,10,11-Trihydroxyaporphine hybrobromide]",percent Bodipy-positive cells,[1],38.4 ± 5.7%
NC(CP(=O)(O)O)C(=O)O (configuration not stated),percent Bodipy-positive cells,[1],32.5 ± 2.9%
CN[C@@H]1[C@@H](O)[C@@H](O[C@@H]2[C@@H](O)[C@H](O[C@H]3O[C@H](CN)CC[C@H]3N)[C@@H](N)C[C@H]2N)OC[C@]1(C)O.CN[C@@H]1[C@@H](O)[C@@H](O[C@@H]2[C@@H](O)[C@H](O[C@H]3O[C@H]([C@@H](C)N)CC[C@H]3N)[C@@H](N)C[C@H]2N)OC[C@]1(C)O.CN[C@@H]1[C@@H](O)[C@@H](O[C@@H]2[C@@H](O)[C@H](O[C@H]3O[C@H]([C@@H](C)NC)CC[C@H]3N)[C@@H](N)C[C@H]2N)OC[C@]1(C)O [Gentamicine sulfate],percent Bodipy-positive cells,,30.9 ± 5.9%
CN[C@@H]1[C@@H](O)[C@@H](O[C@@H]2[C@@H](O)[C@H](O[C@H]3O[C@H](CN)CC[C@H]3N)[C@@H](N)C[C@H]2N)OC[C@]1(C)O.CN[C@@H]1[C@@H](O)[C@@H](O[C@@H]2[C@@H](O)[C@H](O[C@H]3O[C@H]([C@@H](C)N)CC[C@H]3N)[C@@H](N)C[C@H]2N)OC[C@]1(C)O.CN[C@@H]1[C@@H](O)[C@@H](O[C@@H]2[C@@H](O)[C@H](O[C@H]3O[C@H]([C@@H](C)NC)CC[C@H]3N)[C@@H](N)C[C@H]2N)OC[C@]1(C)O [Gentamicin sulfate],percent Bodipy-positive cells,library stock concentration: 3.5 mM,2.51 ± 1.3%
same,percent Bodipy-positive cells,[1],17.1 ± 0.86%
CN1CCN(C(=O)O[C@H]2c3nccnc3C(=O)N2c2ccc(Cl)cn2)CC1 [Eszopiclone],percent Bodipy-positive cells,[1],20.6 ± 8.3%
CN1CCN(C(=O)O[C@H]2c3nccnc3C(=O)N2c2ccc(Cl)cn2)CC1,percent Bodipy-positive cells,[1],44.1 ± 5.3%
O=C1Nc2ccc(Cl)cc2C(c2ccccc2Cl)=NC1O (configuration not stated) [Lorazepam],percent Bodipy-positive cells,[1],10.2 ± 2.4%
O=C1CC[C@@]2(O)[C@H]3Cc4ccc(O)c5c4[C@@]2(CCN3CC2CC2)[C@H]1O5 [Naltrexone hydrochloride dihydrate],percent Bodipy-positive cells,,24.5 ± 2.3%
O=C1CC[C@@]2(O)[C@H]3Cc4ccc(O)c5c4[C@@]2(CCN3CC2CC2)[C@H]1O5 [Naltrexone hydrochloride],percent Bodipy-positive cells,[4],8.81 ± 0.31%
same,percent Bodipy-positive cells,[1],39.1% and 47.3%
O=C1CC[C@@]2(O)[C@H]3Cc4ccc(O)c5c4[C@@]2(CCN3CC2CC2)[C@H]1O5 [Naltrexone HCl],percent Bodipy-positive cells,[2],24 ± 5.7%
same,percent Bodipy-positive cells,[4],8.91 ± 3.7%
same,percent Bodipy-positive cells,[1],7.54 ± 0.71%
COc1ccc2c(c1O)-c1c(OC)c(OC)cc3c1[C@H](C2)N(C)CC3 [S-isocorydine (+)],percent Bodipy-positive cells,[1],39.9 ± 21%
COc1ccc2c(c1O)-c1c(OC)c(OC)cc3c1[C@H](C2)N(C)CC3 [Isocorydine (+)],percent Bodipy-positive cells,,33.3 ± 0.73%
NC(=O)c1cc([N+](=O)[O-])cc([N+](=O)[O-])c1 [Nitromide],percent Bodipy-positive cells,library stock concentration: 9.5 mM,4.12 ± 1.2%
same,percent Bodipy-positive cells,[1],15 ± 2.8%
CCOC(=O)CC(SP(=S)(OC)OC)C(=O)OCC (configuration not stated),percent Bodipy-positive cells,[1],31.5 ± 3.1%
CC(C)[C@]12O[C@H]1[C@@H]1O[C@]13[C@]1(O[C@H]1C[C@H]1C4=C(CC[C@@]13C)C(=O)OC4)[C@@H]2O,percent Bodipy-positive cells,[1],42.6 ± 13%
CC(C)[C@]12O[C@H]1[C@@H]1O[C@]13[C@]1(O[C@H]1C[C@H]1C4=C(CC[C@@]13C)C(=O)OC4)[C@@H]2O [Triptolide (PG490)],percent Bodipy-positive cells,[2],52 ± 8.6%
same,percent Bodipy-positive cells,[1],70.6 ± 14%
NCC(CC(=O)O)c1ccc(Cl)cc1 (configuration not stated) [(?)-Baclofen],percent Bodipy-positive cells,[1],58.5 ± 9.6%
NCC(CC(=O)O)c1ccc(Cl)cc1 (configuration not stated) [Baclofen],percent Bodipy-positive cells,library stock concentration: 9.4 mM,2.99 ± 0.12%
same,percent Bodipy-positive cells,[1],20.9 ± 17%
"CN1CC[C@@]2(C)c3cc(O)ccc3N(C)C12 (single isomer, unassigned; (-)) [(-)-Eseroline fumarate]",percent Bodipy-positive cells,[1],96.5 ± 1.2%
CC(C)(C)c1cc(C=C(C#N)C#N)cc(Br)c1O,percent Bodipy-positive cells,[2],11.2% and 10.7%
same,percent Bodipy-positive cells,[1],24.4 ± 4.4%
CC(=O)[C@H]1CC[C@H]2[C@@H]3CC[C@H]4C[C@H](O)CC[C@]4(C)[C@H]3CC[C@]12C [5alpha-Pregnan-3alpha-ol-20-one],percent Bodipy-positive cells,[1],19.3 ± 7.3%
CCN1C[C@]2(C)CC[C@H](O)[C@]34C1[C@@H](C[C@H]23)[C@@]1(O)C[C@H](OC)[C@H]2C[C@@H]4[C@@H]1[C@H]2O [Karakoline],percent Bodipy-positive cells,,12.5 ± 1%
COc1cc(CNC(=O)CCCCCCC(C)C)c(I)cc1O,percent Bodipy-positive cells,[3],7.29 ± 3.7%
NC(=S)N/N=C/c1coc2ccccc2c1=O.[Cl][Cu][Cl],percent Bodipy-positive cells,[1],3.33 ± 0.41%
O=C(NCCN1CCC2(CC1)C(=O)NCN2c1ccccc1)c1ccc2ccccc2c1,percent Bodipy-positive cells,[3],14.6 ± 1.8%

# Quoted at random: 2 records from the list
smiles,measurement,setting,value
O=C1Nc2ccc(Cl)cc2C(c2ccccc2Cl)=NC1O (configuration not stated) [Lorazepam],percent Bodipy-positive cells,[1],10.2 ± 2.4%
"C[C@]12CCC(=O)C[C@@H]1CC[C@@H]1[C@@H]2CC[C@]2(C)C(=O)CC[C@@H]12 [5alpha-androstan-3,17-dione]",percent Bodipy-positive cells,[1],36.1 ± 5.4%
